Assay results as given in PMC12254266, “Multicolored sequential resonance energy transfer for detection of simultaneous ligand binding at G protein-coupled receptors” (Nature Communications, 2025).
Several values for one entry are separate records, joined by “and”; a condition that tells them apart may be missing. Equal entries are not always repeated. This continues a long series; more values of the same kind are listed elsewhere.

Chains of the proteins cited; added tags and fusions are not shown.
UniProt O14842, whole entry: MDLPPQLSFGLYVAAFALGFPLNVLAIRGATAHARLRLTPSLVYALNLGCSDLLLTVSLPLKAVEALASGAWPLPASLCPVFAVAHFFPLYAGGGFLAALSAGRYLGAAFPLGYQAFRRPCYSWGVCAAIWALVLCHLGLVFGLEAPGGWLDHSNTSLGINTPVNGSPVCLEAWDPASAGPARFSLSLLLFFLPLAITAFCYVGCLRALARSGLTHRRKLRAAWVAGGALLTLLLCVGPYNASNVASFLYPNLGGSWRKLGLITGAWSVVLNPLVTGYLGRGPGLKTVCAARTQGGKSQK

Tests used:
[1] = target: T1, FFA1-Nluc (Homo sapiens, UniProt O14842); assay: DISCo-BRET (endpoint, spectra scan, kinetics) with TUG-2591 and TUG-2597 at C terminal Nluc tagged FFA1; type: binding; design: expressed in transfected cells; conditions: Figure 4Biii, single replicate values (technical duplicate)
Method: Nluc-FFA1 or FFA1-Nluc Flp-In T-REx 293 cells were plated at 50,000 cells per well in poly-D-lysine coated white 96-well plates. Cells were cultured for 24 h in the plate before medium was replaced with medium containing 100 ng/mL of doxycycline to induce receptor expression. After culturing for a further 24 h, culture medium was removed, cells washed with HBSS and incubated in HBSS for 30 min. For all DISCo-BRET formats Nano-Glo substrate was then added at a 1:800 final dilution and cells incubated for 10 min. Following substrate addition experimental set up different among the three formats: endpoint, spectra scan, and kinetics.
For endpoint experiments all fluorescent and unlabelled ligands were added to the cells and incubated for 5 min at 37 °C. Luminescent emission was then measured using a CLARIOstar microplate reader with monochromator set at 450–60 nm (Nluc), 540−60 nm (NBD) and 690–100 nm (SulfoCy5). BRET ratios were then calculated as either SulfoCy5 emission divided by NBD emission, SulfoCy5 emission divided by Nluc emission, or NBD emission divided by Nluc emission.
For spectra scan experiments all indicated fluorescent and unlabelled ligands were added to the cells and cells incubated for 5 min at 37 °C. Luminescence emissions were then measured from each well of the plate from 440 nm – 740 nm with a 5 nm resolution using a CLARIOstar microplate. […]
In kinetic DISCo-BRET experiments plates were placed directly in a CLARIOstar plate reader set to 25 °C 10 min after Nano-Glo substrate addition. […] After 5 min of background measurements, the plate reader was paused for the first indicated fluorescent ligand(s) addition, before immediately returning the plate to the reader to continue luminescence readings. After 5 min, the reader was again paused to add the second fluorescent ligand (association assays) or competing ligand(s) (dissociation assays), before immediately continuing the measurements for the indicated time. […]

[2] = target: T1, FFA1-Nluc; assay: Ca2+ mobilisation antagonism of FFA1 agonists (TUG-905, T360) in Flp-In T-REx 293 cells expressing FFA1-Nluc; type: cell-based; design: expressed in transfected cells
Method: Nluc-FFA1, FFA1-Nluc or untagged FFA1 Flp-In T-REx 293 cells were plated at 50,000 cells per well in poly-D-lysine coated black clear bottom 96-well plates. Cells were then cultured for 24 h until reaching confluency before culture medium was replaced with medium containing 100 ng/mL of doxycycline to induce receptor expression. Cells were cultured for a further 24 h before the assay. On the day of the assay culture medium was removed and replaced with medium containing 3 μM Fura2-AM Ca^2+ dye. […] Fura2 fluorescent emission at 520 nm following excitation with each of 340 and 380 nm was measured in regular intervals both before and after adding test compounds for a total of 90 s per well. Calcium responses were determined by taking the peak 340/380 ratio after first subtracting the ratios obtained prior to addition of test compound. […]
Ca2+ mobilization responses were measured in
Flp-In T-REx 293 cells expressing FFA1-Nluc. Ca2+ responses to increasing concentrations
pre-treated with 10 μM PPTQ. The mode of antagonism for PPTQ was assessed by
N=3 (A-D, F, H) or N=4 (E, G) independent experiments. S ource data are provided as a […]

Structure (SMILES)	Specific BRET (540/450), % of control ([1]; log[Ligand] -6.5)	Ca2% Response (%) ([2]; log[T360] -4.5, 10 μΜ (antagonist not given), Sup Figure 6F)	Ca2% Response (%) ([2]; log[T360] -5, Veh (no antagonist), technical duplicates, Sup Fig 6H)	Ca2% Response (%) ([2]; log[T360] -5, 10 μΜ (antagonist not given), Sup Figure 6F)	Ca2% Response (%) ([2]; log[T360] -5, Veh (no antagonist), Sup Figure 6F)	Ca2% Response (%) ([2]; log[T360] -5, column head 1.0 μM (antagonist not given), Sup Figure 6F)	Ca2% Response (%) ([2]; log[T360] -5.5, 10 μΜ (antagonist not given), Sup Figure 6F)	Ca2% Response (%) ([2]; log[T360] -5.5, Veh (no antagonist), Sup Figure 6F)	Ca2% Response (%) ([2]; log[T360] -5.5, column head 1.0 μM (antagonist not given), Sup Figure 6F)	Ca2% Response (%) ([2]; log[T360] -6, Veh (no antagonist), Sup Fig 6H)	Ca2% Response (%) ([2]; log[T360] -7, Veh (no antagonist), Sup Fig 6H)	Ca2% Response (%) ([2]; log[T360] -8, 10 μΜ (antagonist not given), Sup Figure 6F)	Ca2% Response (%) ([2]; log[T360] -8, column head 1.0 μM (antagonist not given), Sup Figure 6F)	Ca2% Response (%) ([2]; log[T360] -9, Veh (no antagonist), Sup Fig 6H)	Ca2% Response (%) ([2]; log[T360] -9, 10 μΜ (antagonist not given), Sup Figure 6F)	Ca2% Response (%) ([2]; log[T360] -9, Veh (no antagonist), Sup Figure 6F)	Ca2% Response (%) ([2]; log[T360] -9, column head 1.0 μM (antagonist not given), Sup Figure 6F)	Ca2% Response (%) ([2]; log[T360] -10, Veh (no antagonist), Sup Fig 6H)	Ca2% Response (%) ([2]; log[T360] -11, Veh (no antagonist), Sup Fig 6H)	Specific BRET (540/450), % of control ([1]; log[Ligand] -6)
CCCN1C(=O)c2ccccc2[C@@H](C(=O)O)[C@@H]1c1ccc(OCc2cccc(-c3ccc(OCCCS(C)(=O)=O)cc3C)c2)cc1 (racemic) [TUG-2745]	62.50 % of control and 144.23 % of control																			
COc1ccc(CCCC(C)(C)C)c(N2CCC(COc3cccc(C(CC(=O)O)C4CC4)c3)CC2)c1.O=C(O)C(F)(F)F (stereo not drawn) [T360]		77.01% and 82.20% and 65.62% and 70.70% and 62.82% and 52.19%	103.51% and 96.49% and 97.50% and 102.50% and 95.14% and 104.86%	84.06% and 85.08% and 71.51% and 64.23% and 77.69% and 81.96%	97.67% and 102.33% and 98.42% and 101.58% and 93.55% and 85.15%	87.63% and 91.69% and 94.92% and 86.67% and 88.77% and 95.10%	69.29% and 92.54% and 57.45% and 54.28% and 80.53% and 74.12%	101.29% and 117.31% and 109.31% and 110.20% and 98.46% and 101.54%	86.89% and 87.93% and 92.03% and 101.29% and 78.90% and 84.60%	114.73% and 98.50% and 105.51% and 98.82% and 101.50% and 99.68%	36.89% and 42.81% and 63.72% and 49.92% and 39.85% and 39.51%	5.09% and 7.29% and 5.37%	3.50% and -1.85%	0.21% and -0.34% and -1.74% and 3.19% and -0.23% and -1.29%	-0.0431% and 0.0431%	-1.37% and 2.64% and 1.34% and 0.99% and 0.42% and -0.20%	3.15% and -1.68% and 1.07% and 2.54% and -0.69% and -0.28%	-1.53% and 0.93% and -1.85% and 0.26% and -0.21% and -0.96%	-0.48% and -0.96% and -1.50% and -0.87% and 3.85% and 0.21%	
CCCN1C(=O)c2ccccc2[C@@H](C(=O)O)[C@@H]1c1ccc(OCc2cccc(C(F)(F)F)c2)cc1 [TUG-2743]	116.97 % of control and 106.08 % of control and 36.73 % of control and 15.16 % of control and 63.36 % of control and 57.97 % of control and 61.90 % of control and 68.58 % of control																			50.66 % of control
